The values that follow come from paper PMC10606770.

Protein sequences, listed by entry. Tags and fused reporters are not part of them. Residues count along the entry.
UniProt P23819, residues 25-883: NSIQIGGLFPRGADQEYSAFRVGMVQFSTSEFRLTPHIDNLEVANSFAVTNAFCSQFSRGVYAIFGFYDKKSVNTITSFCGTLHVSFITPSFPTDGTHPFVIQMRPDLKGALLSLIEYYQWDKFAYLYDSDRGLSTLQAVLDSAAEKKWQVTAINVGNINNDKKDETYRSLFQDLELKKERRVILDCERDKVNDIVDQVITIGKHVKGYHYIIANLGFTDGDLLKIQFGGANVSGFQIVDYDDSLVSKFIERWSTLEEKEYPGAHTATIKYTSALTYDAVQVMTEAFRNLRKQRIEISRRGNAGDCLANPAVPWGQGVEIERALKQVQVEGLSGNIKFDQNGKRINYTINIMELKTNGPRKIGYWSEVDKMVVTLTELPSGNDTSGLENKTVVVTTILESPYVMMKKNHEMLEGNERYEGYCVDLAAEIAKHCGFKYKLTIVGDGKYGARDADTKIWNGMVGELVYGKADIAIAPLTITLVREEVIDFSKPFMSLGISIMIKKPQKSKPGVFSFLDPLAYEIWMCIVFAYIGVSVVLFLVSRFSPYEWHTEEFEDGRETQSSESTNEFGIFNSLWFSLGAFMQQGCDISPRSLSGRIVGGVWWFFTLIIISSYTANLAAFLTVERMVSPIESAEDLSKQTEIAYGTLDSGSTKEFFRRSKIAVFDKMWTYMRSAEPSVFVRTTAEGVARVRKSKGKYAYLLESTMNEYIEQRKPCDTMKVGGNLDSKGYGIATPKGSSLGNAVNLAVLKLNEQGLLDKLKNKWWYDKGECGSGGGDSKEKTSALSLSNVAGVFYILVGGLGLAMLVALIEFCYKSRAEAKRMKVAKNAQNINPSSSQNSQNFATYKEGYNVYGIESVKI

Results are given in words; binding and its absence hold for the method and conditions named. Binding seen in cells or lysates may run through a third protein. Some results given as binding are weak or reduced against the parent protein; the word gives no strength.

The assay deals with Glutamate ionotropic receptor AMPA type subunit 2 (GRIA2/GluA2) (mouse (endogenous in mouse brain)) (UniProt P23819). Put plainly: co-IP; synaptosomes (P2) from whole mouse brain in Syn-PER reagent and co-IP buffer (150 mM NaCl, 10 mM Tris-HCl pH 7.4, 1 mM EDTA, 1 mM EGTA, Triton X-100 1%, NP-40 0.5%), on ice and at 4 °C; 2.88 µg primary antibody, Protein A magnetic beads; Western blot. On the technique in general: In western blotting, separated proteins are transferred to a membrane and probed.

B1: Ubiquitin-specific protease 53 (USP53) (protein, UniProt P15975 1-1069)
chain: MAWVKFLRKPSGNLGKAYQAGSLLSLAPTVGLLNEPGQNSCFLNSAVQVLWQLDIFRRSLRALTGHICQGDACIFCALKTIFAQFQHSREKALPSDNIRHALAESFKDEQRFQLGLMDDAAECFENILARIHFHLVPNRDADMCTSKSCVTHQKFAMTLYEQCVCRSCGASSDPLPFTELVRYISTTALCNEVERMMERHERVKPEMFAELLQAANTADDYRKCPSNCGQKIKIRRVLMNCPEIVTIGLVWDSEHSDLTEDVVRSLATHLYLPGLFYRVTDENATDSELHLVGMICYTSRHYCAFAFHTKSSKWVFFDDAHVKEMGTRWKDVVSKCIRCHLQPLLLFYANPDGTAVSTEDALRQVVHWSHYRSGEENMGCGKPIIYKPDNSKENGFGGQTKQKENHKFQTDISSLNRSQMQTSGRRAPVKLSHDQREKIKDISRECALKAIEQKNALSSQRKDLEKGQRKDTGRHRDLVDEVLASFKSGSPPASDGFRQQGNPHLYHSQGKGPCKHDRATHESYTSGKVISSSKSQNLLVPGEKTTGKAKSDSGTGYETDSSQDSRDKGGSYSSKTKSRHRGWKPMRETLNVDSVFSESEKRQHSPRRKSDIGSRPRCSKDQSFNNWPKANPKQKGLMTIYEDEMKQEAGSRSSLETNGKGAEKNLSAAESRGPGTSWQMQRTESGYESSDHVSNGSASLDSPGVEGSGAVMDVGGGKAFSEHIKMNSHNMDSMEYISHHCKDHPEGFRKELQDLEADDKIHELHPESHVQIKSHLIKRSQIGETNDKLFPSASPQTLAREHVYQTNEHKVERPDRSKCSERHNTENSEGTGLPFHVDESSVAGKRVDSNETVSPSSLPSSVRTAGLKPETGPLMFWSQQNITEQGYSDNSLSRELTLLSACNADSCQMPKLHCHRSPPPLPPKKYSTASAPRLERVGLSPDVGVTEAFNTNPSSLPKHSLSPASGPSLEGSPCMTQERDKETIQVKQLAANSYPSSCSTNSFQPDQDSTSVCPNETISLTTYFSVDSCMTDTYRLKYHQRPKLYFPESSGHHSNNSLSQTEQVEGSIT
Turning to B1, the binding entry is “binds”.
